Test results taken from PubChem BioAssay AID192 (DTP/NCI, 2004).
The list shows only some results of the screen, not a fair sample: it gathers tests that were run many times, whatever their T/C, doses with no T/C, and many T/C values between a quarter and a half above the control. Other doses and runs of a compound stand elsewhere. T/C is the treated group as % of the vehicle group. Some entries give survivors of the animals treated and no T/C: the source holds a T/C of zero for them, seemingly a mark for toxic or unscored doses. Some doses without a T/C left all or most animals alive at the check, yet need not have been tolerated: the source hardly ever lists a survival T/C far under the control, and the zero likely stands for such cases as well. Counts of survivors are from the toxicity check (mostly the fifth day) where no day follows; animals may have died later. Schedules are NCI's codes, read here as Q, the interval in days (D) or hours (H), X, the number of doses. Some doses were run more than once; the values are given in rising order. Some molecules as drawn cover several salts, stereoisomers or complexes of the source; a dose is that of the sample tested. For survival time, the PubChem record calls one and a half times the control and up active, and a quarter to a half above the control has no call in these data; cut-offs in other NCI protocols can differ. Some T/C values carry the count of animals alive at the toxicity check (mostly the fifth day); without a count, all were alive then.

Tested on: BDF1 mice, B16 melanoma ip, median survival T/C
Experiment: NCI In Vivo Anticancer Drug Screen. Data for tumor model B16 Melanoma (intraperitoneal) in B6D2F1 (BDF1) mice
Conditions: T/C endpoint: median survival time, higher T/C = longer survival
Procedure, shortened: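 Read-out: survival or tumor size, given as treated/control ratio. Controls received vehicle only; animals bore transplantable tumors.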

[1] = dose: 12.5 mg/kg/injection, schedule: Q01DX009 (ip), vehicle: Klucel (hydroxypropylcellulose) (HPC)
[2] = dose: 400.0 mg/kg/injection, schedule: Q01DX009 (ip), vehicle: Klucel (hydroxypropylcellulose) (HPC)
[3] = dose: 100.0 mg/kg/injection, schedule: Q01DX009 (ip), vehicle: saline
[4] = dose: 200.0 mg/kg/injection, schedule: Q01DX009 (ip), vehicle: Klucel (hydroxypropylcellulose) (HPC)
[5] = dose: 100.0 mg/kg/injection, schedule: Q01DX009 (ip), vehicle: Klucel (hydroxypropylcellulose) (HPC)
[6] = dose: 100.0 mg/kg/injection, schedule: Q04DX003 (ip), vehicle: saline
[7] = dose: 400.0 mg/kg/injection, schedule: Q04DX003 (ip), vehicle: saline
[8] = dose: 50.0 mg/kg/injection, schedule: Q01DX009 (ip), vehicle: saline
[9] = dose: 200.0 mg/kg/injection, schedule: Q01DX009 (ip), vehicle: saline
[10] = dose: 400.0 mg/kg/injection, schedule: Q01DX009 (ip), vehicle: saline
[11] = dose: 50.0 mg/kg/injection, schedule: Q01DX009 (ip), vehicle: saline with Tween-80
[12] = dose: 100.0 mg/kg/injection, schedule: Q01DX009 (ip), vehicle: saline with Tween-80
[13] = dose: 400.0 mg/kg/injection, schedule: Q04DX003 (ip), vehicle: Klucel (hydroxypropylcellulose) (HPC)
[14] = dose: 200.0 mg/kg/injection, schedule: Q01DX009 (ip), vehicle: saline with Tween-80
[15] = dose: 400.0 mg/kg/injection, schedule: Q01DX009 (ip), vehicle: saline with Tween-80

## O=C(CCCN1CC=C(n2c(=O)[nH]c3ccccc32)CC1)c1ccc(F)cc1
dose: 3.12 mg/kg/injection, schedule: Q01DX009 (ip), vehicle: Klucel (hydroxypropylcellulose) (HPC)
  survivor count: 10 of 10
[1]
  survivor count: 10 of 10
[2]
  survivor count: 2 of 10

## COc1cc(C)c2c(c1C=O)Oc1c(c(C)c(O)c3c1C(O)OC3=O)OC2=O (configuration not stated)
[3]
  survivor count: 8 of 10

## ClC1=C(Cl)C(Cl)(Cl)C(Cl)(Cl)C1(Cl)Cl
[4]
  survivor count: 8 of 10
[2]
  survivor count: 8 of 10

## CCOc1ccc(/C=N\N=C\c2ccc(OCC)cc2)cc1
[5]
  survivor count: 10 of 10
[2]
  survivor count: 9 of 10 and 10 of 10

## C=C1C(=O)OC2C1CCC(=C)C1CC(O)C(=C)C12 (configuration not stated)
dose: 150.0 mg/kg/injection, schedule: Q01DX009 (ip), vehicle: saline with Tween-80
  survivor count: 10 of 10
dose: 225.0 mg/kg/injection, schedule: Q01DX009 (ip), vehicle: saline with Tween-80
  survivor count: 4 of 10

## O=C1C=CC(=O)O1 (tested in a mixture with another compound)
dose: 25.0 mg/kg/injection, schedule: Q01DX009 (ip), vehicle: Klucel (hydroxypropylcellulose) (HPC)
  T/C: 130 % of control
dose: 25.0 mg/kg/injection, schedule: Q01DX009 (ip), vehicle: other
  T/C: 135 % of control
dose: 25.0 mg/kg/injection, schedule: Q04DX003 (ip), vehicle: saline
  T/C: 136 % of control
dose: 37.5 mg/kg/injection, schedule: Q04DX003 (ip), vehicle: Klucel (hydroxypropylcellulose) (HPC)
  T/C: 137 % of control
dose: 50.0 mg/kg/injection, schedule: Q01DX009 (ip), vehicle: other
  T/C: 126 % of control
dose: 50.0 mg/kg/injection, schedule: Q04DX003 (ip), vehicle: saline
  T/C: 141 % of control
dose: 75.0 mg/kg/injection, schedule: Q04DX003 (ip), vehicle: Klucel (hydroxypropylcellulose) (HPC)
  T/C: 125 % of control
dose: 100.0 mg/kg/injection, schedule: Q01DX009 (ip), vehicle: other
  T/C: 135 % of control
[6]
  T/C: 147 % of control
[4]
  T/C: 132 % of control
[7]
  T/C: 148 % of control [9 of 10 alive]

## C=C1CC2(OC1=O)C(=O)N(C)c1ccc(I)cc12 (configuration not stated)
[8]
  survivor count: 7 of 10
[3]
  survivor count: 6 of 10 and 7 of 10
[9]
  survivor count: 0 of 10 and 5 of 10

## O=C1[O][Hg][c]2cccc3cccc1c23
dose: 2.5 mg/kg/injection, schedule: Q04DX003 (ip), vehicle: saline with Tween-80
  T/C: 147 % of control
dose: 3.75 mg/kg/injection, schedule: Q04DX003 (ip), vehicle: saline with Tween-80
  survivor count: 10 of 10
dose: 5.0 mg/kg/injection, schedule: Q04DX003 (ip), vehicle: saline with Tween-80
  T/C: 144 % of control
dose: 10.0 mg/kg/injection, schedule: Q01DX009 (ip), vehicle: saline with Tween-80
  survivor count: 10 of 10

## OC(CCN1CCCC1)(c1ccccc1)C1CCCCC1 (configuration not stated)
[1]
  survivor count: 10 of 10

## CC[N+](CC)(CC)CC
dose: 6.0 mg/kg/injection, schedule: Q01DX009 (ip), vehicle: saline with Tween-80
  survivor count: 10 of 10
dose: 12.0 mg/kg/injection, schedule: Q01DX009 (ip), vehicle: saline with Tween-80
  survivor count: 10 of 10
[3]
  survivor count: 0 of 10
[6]
  survivor count: 3 of 10
[9]
  survivor count: 0 of 10
[10]
  survivor count: 0 of 10

## COC1=C2CC(C)CC(OC)C(O)C(C)/C=C(\C)C(OC(N)=O)C(OC)/C=C\C=C(/C)C(=O)NC(=C(/C=N/N3CCOCC3)C1=O)C2=O (configuration not stated)
dose: 50.0 mg/kg/injection, schedule: Q01DX005 (ip), vehicle: other
  survivor count: 6 of 6

## COc1ccc2c3c1OC1CC(O)C=CC31CCN(C)C2 (configuration not stated)
dose: 2.5 mg/kg/injection, schedule: Q01DX009 (ip), vehicle: saline with Tween-80
  T/C: 131 % of control
dose: 5.0 mg/kg/injection, schedule: Q01DX009 (ip), vehicle: saline
  survivor count: 10 of 10
dose: 10.0 mg/kg/injection, schedule: Q01DX009 (ip), vehicle: saline
  survivor count: 4 of 10
dose: 20.0 mg/kg/injection, schedule: Q01DX009 (ip), vehicle: saline with Tween-80
  survivor count: 0 of 10
dose: 20.0 mg/kg/injection, schedule: Q01DX009 (ip), vehicle: saline
  survivor count: 0 of 10

## CC(=O)Oc1ccccc1O
dose: 200.0 mg/kg/injection, schedule: Q01DX009 (ip), vehicle: saline + Tween-80 + alcohol
  survivor count: 3 of 10

## CCCCCCCCCCCCCCCc1ccc(C(=O)C[n+]2ccccc2)cc1
[11]
  survivor count: 10 of 10

## O=C(O)c1cc(C(=O)O)cc([N+](=O)[O-])c1
[12]
  survivor count: 10 of 10

## O=C(O)c1ccc2c(c1)C(=O)c1ccccc1S2(=O)=O
[2]
  survivor count: 0 of 10

## COC(=O)C1(C(=O)OC)CCCCC1=O
[13]
  survivor count: 10 of 10

## CN(C)CCCN1c2ccccc2S(=O)c2ccc(Cl)cc21 (configuration not stated)
[9]
  survivor count: 5 of 10

## CC1(C)OC2C(COC(=O)c3ccc([N+](=O)[O-])cc3)OC(NC(=O)N(CCCl)N=O)C2O1 (configuration not stated)
dose: 6.25 mg/kg/injection, schedule: Q01DX009 (ip), vehicle: saline with Tween-80
  T/C: 137 % of control
dose: 12.5 mg/kg/injection, schedule: Q01DX009 (ip), vehicle: saline with Tween-80
  T/C: 141 % of control
[11]
  T/C: 134 % of control
[12]
  T/C: 147 % of control
  survivor count: 10 of 10

## CCN(C)N=Nc1ccc(C(N)=O)cc1
[5]
  survivor count: 10 of 10
[4]
  survivor count: 10 of 10

## CC(CN(C)C)CN1c2ccccc2Sc2ccccc21 (configuration not stated)
[11]
  survivor count: 2 of 10 and 4 of 10
[12]
  survivor count: 0 of 10
[14]
  survivor count: 0 of 10

## CNCC(O)c1ccc(O)cc1 (configuration not stated)
dose: 25.0 mg/kg/injection, schedule: Q01DX009 (ip), vehicle: saline
  T/C: 125 % of control
[10]
  T/C: 143 % of control

## O=C1NC2C(NC(=O)N2Cl)N1Cl (configuration not stated)
[11]
  survivor count: 10 of 10
[8]
  survivor count: 9 of 10
dose: 50.0 mg/kg/injection, schedule: Q04DX003 (ip), vehicle: saline with Tween-80
  survivor count: 10 of 10
[12]
  survivor count: 4 of 10
dose: 100.0 mg/kg/injection, schedule: Q04DX003 (ip), vehicle: saline with Tween-80
  survivor count: 9 of 10
dose: 200.0 mg/kg/injection, schedule: Q04DX003 (ip), vehicle: saline with Tween-80
  survivor count: 2 of 10

## Cc1c2ccnc(-c3ccccc3)c2cc2c1[nH]c1ccccc12
[14]
  survivor count: 10 of 10
[15]
  survivor count: 10 of 10

## CCCCC(CC)C1OC(=O)C(C)O1 (configuration not stated)
[13]
  survivor count: 10 of 10

## CN(C)CCCc1c2ccccc2nc2ccc(Cl)cc12
[6]
  survivor count: 0 of 10
dose: 200.0 mg/kg/injection, schedule: Q04DX003 (ip), vehicle: saline
  survivor count: 0 of 10
[7]
  survivor count: 0 of 10

## Oc1ccc(/C=N/NC(=S)NN2CCOCC2)nc1
dose: 50.0 mg/kg/injection, schedule: Q01DX009 (ip), vehicle: Klucel (hydroxypropylcellulose) (HPC)
  survivor count: 10 of 10

## Cc1nccc(=O)[nH]1
[10]
  survivor count: 0 of 10
[7]
  survivor count: 5 of 10

## Clc1ccc2c(c1)/C(=C/c1cccnc1)c1cc(Cl)cc(Cl)c1-2
[12]
  survivor count: 6 of 6
[14]
  survivor count: 6 of 6
[15]
  survivor count: 6 of 6
